Data as given in PubChem BioAssay AID1259425 (University of Nebraska Medical Center, 2018).
In all, the deposit lists about 14,000 reagents; shown is an unselected part. Further read-outs or replicates are left out here. The record does not give: the time to read-out.

Assay: 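Compare each knockdown with KSR1 silencing using changes in marker transcripts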 (primary screen)
System: HCT116 human colon cancer cells
Reagents: siRNA pool against human genes, 50 nM siRNA
Measured: 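After 50 nM siRNA pool, branched-DNA assay measures six marker transcripts per well, minus blank, normalised to the geometric mean of two housekeeping transcripts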
Reading the numbers: BNIP3L mRNA: higher = more BNIP3L transcript after knockdown

For ROM1 (GeneID 6094), how do the results read?
BNIP3L mRNA, set 1: 0.127

What did the screen give for CEP72 (GeneID 55722)?
BNIP3L mRNA, set 1: 0.319

For SIRT4 (GeneID 23409), how do the results read?
BNIP3L mRNA, set 1: 0.0647

With INPP5K (GeneID 51763), what was measured?
BNIP3L mRNA, set 1: 0.207

With NTN3 (GeneID 4917), how do the results read?
BNIP3L mRNA, set 1: 0.156

How did the screen score ZNF124 (GeneID 7678)?
BNIP3L mRNA, set 1: 0.0707

What did the screen give for WNT8B (GeneID 7479)?
BNIP3L mRNA, set 1: 0.0644

For VPS54 (GeneID 51542), what was measured?
BNIP3L mRNA, set 1: 0.0859

How did the screen score WDR7 (GeneID 23335)?
BNIP3L mRNA, set 1: 0.468

What did the screen give for NR3C1 (GeneID 2908)?
BNIP3L mRNA, set 1: 0.126

With LRTM1 (GeneID 57408), what was measured?
BNIP3L mRNA, set 1: 0.63

Which result is listed for SDHD (GeneID 6392)?
BNIP3L mRNA, set 1: 0.0805

With SHANK1 (GeneID 50944), what does the deposit list?
BNIP3L mRNA, set 1: 0.108

With ZNF254 (GeneID 9534), what does the deposit list?
BNIP3L mRNA, set 1: 0.117

With SPINK5 (GeneID 11005), what was measured?
BNIP3L mRNA, set 1: 0.0899

For SSNA1 (GeneID 8636), what does the deposit list?
BNIP3L mRNA, set 1: 0.175

With ZBP1 (GeneID 81030), how do the results read?
BNIP3L mRNA, set 1: 0.17

With PARVA (GeneID 55742), what was measured?
BNIP3L mRNA, set 1: 0.127

What did the screen give for SARS2 (GeneID 54938)?
BNIP3L mRNA, set 1: 0.0601

Taken from above.
For “BNIP3L mRNA, set 1”, SPINK5 (GeneID 11005) has 0.0899
Under “BNIP3L mRNA, set 1”, CEP72 (GeneID 55722) is entered as 0.319
Entry of PARVA (GeneID 55742) in “BNIP3L mRNA, set 1”: 0.127
